US12509437B2, “Substituted thiophene carboxamides and derivatives thereof as microbicides” (Bayer Aktiengesellschaft, priority 2019, dated 2025)
Some entries share one result that the patent states for a list of compounds.

What was measured:
[1] = system: Pseudomonas syringae pv. tomato; test: Pseudomonas syringae pv. tomato in vitro cell test; assay type: cell-based; details: 20 ppm of active ingredient; 24 h of incubation
Experimental: (§1) • Solvent: DMSO • Culture medium: LB broth medium (Luria Broth Miller) Sigma • Inoculum: bacteria suspension Compounds were solubilized in DMSO and the solution used to prepare the required range of concentrations. The final concentration of DMSO used in the assay was ≤1%. Inoculum was prepared from a pre-culture of bacteria grown in liquid medium and diluted to the desired optical density (OD). Compounds were evaluated for their ability to inhibit bacteria growth in liquid culture assay. The compounds were added in the desired concentrations to culture medium containing the bacteria suspension. After 24 h of incubation, the efficacy of compounds was determined by spectrometric measurement of bacteria growth. Inhibition was determined by comparing the absorbance values in wells containing the compounds with the absorbance in control wells without active ingredients.

[2] = system: salicylate responsive promoter sequence of the PR1 (pathogenesis-related protein I) gene (AT2G14610); test: Induction of defense gene expression in Arabidopsis thaliana (PR1 promoter-GFP reporter plants); assay type: in vivo; details: 3rd day after spraying, mock treated leaves set as 1.00
Experimental: Arabidopsis thaliana reporter plants containing the coding sequence of a green fluorescent protein (GFP) linked to the salicylate responsive promoter sequence of the PR1 (pathogenesis-related protein I) gene (AT2G14610) were grown for five days and then sprayed with compounds. On the 3rd day after spraying, plant fluorescence was assessed with a MacroFluo instrument from Leica Microsystems (Wetzlar, Germany). Fluorescences were quantified with the Meta-Morph Microscopy Automation & Image Analysis Software (Molecular Devices, Sunnyvale, Calif., United States). Background fluorescence in mock treated leaves was set as 1.00.

[3] = system: Alternaria alternata; test: Alternaria alternata in vitro cell test; assay type: cell-based; details: 5 days incubation
Experimental: (§2) • Solvent: DMSO • Culture medium: 14.6 g anhydrous D-glucose (VWR), 7.1 g Mycological Peptone (Oxoid), 1.4 g granulated Yeast Extract (Merck), QSP 1 liter • Inoculum: spores suspension Fungicides were solubilized in DMSO and the solution used to prepare the required range of concentrations. The final concentration of DMSO used in the assay was ≤[…]1%. A spore suspension of A. alternata was prepared and diluted to the desired spore density. Fungicides were evaluated for their ability to inhibit spore germination and mycelium growth in liquid culture assay. The compounds were added in the desired concentration to the culture medium with spores. After 5 days incubation, fungi-toxicity of compounds was determined by spectrometric measurement of mycelium growth. Inhibition of fungal growth was determined by comparing the absorbance values in wells containing the fungicides with the absorbance in control wells without fungicides.

[4] = system: Xanthomonas campestris pv. campestris; test: Xanthomonas campestris pv. campestris in vitro cell test; assay type: cell-based; details: 24 h of incubation
Experimental: as §1

[5] = system: Colletotrichum lindemuthianum; test: Colletotrichum lindemuthianum in vitro cell test; assay type: cell-based; details: 6 days incubation
Experimental: as §2, with “of C. lindemuthianum” for “of A. alternata”, “inhibit spores” for “inhibit spore”, “After 6” for “After 5”

Cc1c(C(=O)NC2C(=O)SC2(C)C)sc(Br)c1Br (stereo not shown) [I.001]
≤ 30%: efficacy (inhibition of bacteria growth; no direct activity) [1] | efficacy (inhibition of fungal growth; no direct activity) ([3]; 5 ppm of active ingredient) | efficacy (inhibition of bacteria growth; no direct activity) ([4]; 5 ppm of active ingredient) | efficacy (inhibition of bacteria growth; no direct activity) ([4]; 20 ppm of active ingredient)
above 2: relative fluorescence value ([2]; 300 ppm)

Cc1c(C(=O)NC2CCSC2=O)sc(Br)c1Br (stereo not shown) [I.002]
≤ 30%: efficacy (inhibition of bacteria growth; no direct activity) [1] | efficacy (inhibition of fungal growth; no direct activity) ([3]; 5 ppm of active ingredient) | efficacy (inhibition of fungal growth; no direct activity) ([3]; 20 ppm of active ingredient) | efficacy (inhibition of bacteria growth; no direct activity) ([4]; 5 ppm of active ingredient) | efficacy (inhibition of bacteria growth; no direct activity) ([4]; 20 ppm of active ingredient)
above 2: relative fluorescence value ([2]; 75 ppm) | relative fluorescence value ([2]; 300 ppm)

COC(=O)C1(NC(=O)c2sc(Br)c(Br)c2C)CCOC1 (stereo not shown) [I.004]
≤ 30%: efficacy (inhibition of fungal growth; no direct activity) ([5]; 5 ppm of active ingredient) | efficacy (inhibition of fungal growth; no direct activity) ([5]; 20 ppm of active ingredient) | efficacy (inhibition of bacteria growth; no direct activity) [1] | efficacy (inhibition of fungal growth; no direct activity) ([3]; 5 ppm of active ingredient) | efficacy (inhibition of fungal growth; no direct activity) ([3]; 20 ppm of active ingredient) | efficacy (inhibition of bacteria growth; no direct activity) ([4]; 5 ppm of active ingredient) | efficacy (inhibition of bacteria growth; no direct activity) ([4]; 20 ppm of active ingredient)
above 2: relative fluorescence value ([2]; 75 ppm) | relative fluorescence value ([2]; 300 ppm)

CCSC(=O)C(CC(C)C)NC(=O)c1sc(Br)c(Br)c1C (stereo not shown) [I.007]
≤ 30%: efficacy (inhibition of fungal growth; no direct activity) ([5]; 5 ppm of active ingredient) | efficacy (inhibition of fungal growth; no direct activity) ([5]; 20 ppm of active ingredient) | efficacy (inhibition of bacteria growth; no direct activity) [1] | efficacy (inhibition of fungal growth; no direct activity) ([3]; 5 ppm of active ingredient) | efficacy (inhibition of fungal growth; no direct activity) ([3]; 20 ppm of active ingredient) | efficacy (inhibition of bacteria growth; no direct activity) ([4]; 5 ppm of active ingredient) | efficacy (inhibition of bacteria growth; no direct activity) ([4]; 20 ppm of active ingredient)
above 2: relative fluorescence value ([2]; 300 ppm)

CCOC(=O)C(Cc1c[nH]c2ccccc12)NC(=O)c1sc(Br)c(Br)c1C (stereo not shown) [I.036]
above 2: relative fluorescence value ([2]; 300 ppm)
≤ 30%: efficacy (inhibition of fungal growth; no direct activity) ([5]; 5 ppm of active ingredient) | efficacy (inhibition of bacteria growth; no direct activity) [1] | efficacy (inhibition of bacteria growth; no direct activity) ([4]; 5 ppm of active ingredient) | efficacy (inhibition of bacteria growth; no direct activity) ([4]; 20 ppm of active ingredient)

COC(=O)C1(NC(=S)c2sc(Cl)c(Cl)c2C)CC1 [I.050]
above 2: relative fluorescence value ([2]; 75 ppm) | relative fluorescence value ([2]; 300 ppm)
≤ 30%: efficacy (inhibition of bacteria growth; no direct activity) [1] | efficacy (inhibition of bacteria growth; no direct activity) ([4]; 5 ppm of active ingredient) | efficacy (inhibition of bacteria growth; no direct activity) ([4]; 20 ppm of active ingredient)

COC(=O)CC1(NC(=O)c2sc(Cl)c(Cl)c2C)CC1 [I.082]
≤ 30%: efficacy (inhibition of fungal growth; no direct activity) ([5]; 5 ppm of active ingredient) | efficacy (inhibition of fungal growth; no direct activity) ([5]; 20 ppm of active ingredient) | efficacy (inhibition of bacteria growth; no direct activity) [1] | efficacy (inhibition of fungal growth; no direct activity) ([3]; 5 ppm of active ingredient) | efficacy (inhibition of fungal growth; no direct activity) ([3]; 20 ppm of active ingredient) | efficacy (inhibition of bacteria growth; no direct activity) ([4]; 5 ppm of active ingredient) | efficacy (inhibition of bacteria growth; no direct activity) ([4]; 20 ppm of active ingredient)

COC(=O)C(NC(=O)c1sc(Cl)c(Cl)c1C)(C1CC1)C1CC1 [I.086]
≤ 30%: efficacy (inhibition of fungal growth; no direct activity) ([5]; 5 ppm of active ingredient) | efficacy (inhibition of bacteria growth; no direct activity) [1] | efficacy (inhibition of fungal growth; no direct activity) ([3]; 5 ppm of active ingredient) | efficacy (inhibition of fungal growth; no direct activity) ([3]; 20 ppm of active ingredient) | efficacy (inhibition of bacteria growth; no direct activity) ([4]; 5 ppm of active ingredient) | efficacy (inhibition of bacteria growth; no direct activity) ([4]; 20 ppm of active ingredient)

COC(=O)C(NC(=O)c1sc(Br)c(Br)c1C)(C1CC1)C1CC1 [I.093]
≤ 30%: efficacy (inhibition of fungal growth; no direct activity) ([5]; 5 ppm of active ingredient) | efficacy (inhibition of fungal growth; no direct activity) ([5]; 20 ppm of active ingredient) | efficacy (inhibition of bacteria growth; no direct activity) [1] | efficacy (inhibition of fungal growth; no direct activity) ([3]; 5 ppm of active ingredient) | efficacy (inhibition of fungal growth; no direct activity) ([3]; 20 ppm of active ingredient) | efficacy (inhibition of bacteria growth; no direct activity) ([4]; 5 ppm of active ingredient) | efficacy (inhibition of bacteria growth; no direct activity) ([4]; 20 ppm of active ingredient)

CCOC(=O)CN(OC)C(=O)c1sc(Br)c(Br)c1C [I.097]
≤ 30%: efficacy (inhibition of fungal growth; no direct activity) ([5]; 5 ppm of active ingredient) | efficacy (inhibition of fungal growth; no direct activity) ([5]; 20 ppm of active ingredient) | efficacy (inhibition of bacteria growth; no direct activity) [1] | efficacy (inhibition of fungal growth; no direct activity) ([3]; 5 ppm of active ingredient) | efficacy (inhibition of bacteria growth; no direct activity) ([4]; 5 ppm of active ingredient) | efficacy (inhibition of bacteria growth; no direct activity) ([4]; 20 ppm of active ingredient)

CCOC(=O)CN(OC)C(=O)c1sc(Cl)c(Cl)c1C [I.098]
≤ 30%: efficacy (inhibition of fungal growth; no direct activity) ([5]; 5 ppm of active ingredient) | efficacy (inhibition of fungal growth; no direct activity) ([5]; 20 ppm of active ingredient) | efficacy (inhibition of bacteria growth; no direct activity) [1] | efficacy (inhibition of fungal growth; no direct activity) ([3]; 5 ppm of active ingredient) | efficacy (inhibition of fungal growth; no direct activity) ([3]; 20 ppm of active ingredient) | efficacy (inhibition of bacteria growth; no direct activity) ([4]; 5 ppm of active ingredient) | efficacy (inhibition of bacteria growth; no direct activity) ([4]; 20 ppm of active ingredient)

CCOC(=O)CNC(=S)c1sc(Cl)c(Cl)c1C [I.099]
≤ 30%: efficacy (inhibition of bacteria growth; no direct activity) [1] | efficacy (inhibition of bacteria growth; no direct activity) ([4]; 5 ppm of active ingredient)
above 2: relative fluorescence value ([2]; 300 ppm)

CCOC(=O)C1(NC(=S)c2sc(Br)c(Br)c2C)CC1 [I.100]
≤ 30%: efficacy (inhibition of fungal growth; no direct activity) ([5]; 5 ppm of active ingredient) | efficacy (inhibition of bacteria growth; no direct activity) [1] | efficacy (inhibition of bacteria growth; no direct activity) ([4]; 5 ppm of active ingredient) | efficacy (inhibition of bacteria growth; no direct activity) ([4]; 20 ppm of active ingredient)
above 2: relative fluorescence value ([2]; 75 ppm) | relative fluorescence value ([2]; 300 ppm)

CCOC(=O)C1(NC(=O)c2sc(Br)c(Br)c2C)CCCC1 [I.106]
≤ 30%: efficacy (inhibition of fungal growth; no direct activity) ([5]; 5 ppm of active ingredient) | efficacy (inhibition of bacteria growth; no direct activity) [1] | efficacy (inhibition of fungal growth; no direct activity) ([3]; 5 ppm of active ingredient) | efficacy (inhibition of fungal growth; no direct activity) ([3]; 20 ppm of active ingredient) | efficacy (inhibition of bacteria growth; no direct activity) ([4]; 5 ppm of active ingredient) | efficacy (inhibition of bacteria growth; no direct activity) ([4]; 20 ppm of active ingredient)

COC(=O)C1(NC(=O)c2sc(Br)c(Br)c2C)CCOCC1 [I.107]
≤ 30%: efficacy (inhibition of fungal growth; no direct activity) ([5]; 5 ppm of active ingredient) | efficacy (inhibition of fungal growth; no direct activity) ([5]; 20 ppm of active ingredient) | efficacy (inhibition of bacteria growth; no direct activity) [1] | efficacy (inhibition of fungal growth; no direct activity) ([3]; 5 ppm of active ingredient) | efficacy (inhibition of fungal growth; no direct activity) ([3]; 20 ppm of active ingredient) | efficacy (inhibition of bacteria growth; no direct activity) ([4]; 5 ppm of active ingredient) | efficacy (inhibition of bacteria growth; no direct activity) ([4]; 20 ppm of active ingredient)

COC(=O)CC(C)NC(=O)c1sc(Br)c(Br)c1C (stereo not shown) [I.109]
≤ 30%: efficacy (inhibition of fungal growth; no direct activity) ([5]; 5 ppm of active ingredient) | efficacy (inhibition of fungal growth; no direct activity) ([5]; 20 ppm of active ingredient) | efficacy (inhibition of bacteria growth; no direct activity) [1] | efficacy (inhibition of fungal growth; no direct activity) ([3]; 5 ppm of active ingredient) | efficacy (inhibition of bacteria growth; no direct activity) ([4]; 5 ppm of active ingredient) | efficacy (inhibition of bacteria growth; no direct activity) ([4]; 20 ppm of active ingredient)

CCOC(=O)C1(NC(=O)c2sc(Br)c(Br)c2C)CCOCC1 [I.139]
≤ 30%: efficacy (inhibition of fungal growth; no direct activity) ([5]; 5 ppm of active ingredient) | efficacy (inhibition of fungal growth; no direct activity) ([5]; 20 ppm of active ingredient) | efficacy (inhibition of bacteria growth; no direct activity) [1] | efficacy (inhibition of fungal growth; no direct activity) ([3]; 5 ppm of active ingredient) | efficacy (inhibition of fungal growth; no direct activity) ([3]; 20 ppm of active ingredient) | efficacy (inhibition of bacteria growth; no direct activity) ([4]; 5 ppm of active ingredient) | efficacy (inhibition of bacteria growth; no direct activity) ([4]; 20 ppm of active ingredient)

Cc1c(C(=O)NC(C)(C#N)C2CC2)sc(Br)c1Br (stereo not shown) [I.152]
≤ 30%: efficacy (inhibition of fungal growth; no direct activity) ([5]; 5 ppm of active ingredient) | efficacy (inhibition of bacteria growth; no direct activity) [1] | efficacy (inhibition of fungal growth; no direct activity) ([3]; 5 ppm of active ingredient) | efficacy (inhibition of fungal growth; no direct activity) ([3]; 20 ppm of active ingredient) | efficacy (inhibition of bacteria growth; no direct activity) ([4]; 5 ppm of active ingredient) | efficacy (inhibition of bacteria growth; no direct activity) ([4]; 20 ppm of active ingredient)

Cc1c(C(=O)NC2CCCCNC2=O)sc(Cl)c1Cl (stereo not shown) [I.163]
≤ 30%: efficacy (inhibition of fungal growth; no direct activity) ([5]; 5 ppm of active ingredient) | efficacy (inhibition of fungal growth; no direct activity) ([5]; 20 ppm of active ingredient) | efficacy (inhibition of bacteria growth; no direct activity) [1] | efficacy (inhibition of fungal growth; no direct activity) ([3]; 5 ppm of active ingredient) | efficacy (inhibition of bacteria growth; no direct activity) ([4]; 5 ppm of active ingredient) | efficacy (inhibition of bacteria growth; no direct activity) ([4]; 20 ppm of active ingredient)

COC(=O)C(C)(Cc1ccccc1)NC(=O)c1sc(Cl)c(Cl)c1C (stereo not shown) [I.166]
≤ 30%: efficacy (inhibition of fungal growth; no direct activity) ([5]; 5 ppm of active ingredient) | efficacy (inhibition of bacteria growth; no direct activity) [1] | efficacy (inhibition of fungal growth; no direct activity) ([3]; 5 ppm of active ingredient) | efficacy (inhibition of bacteria growth; no direct activity) ([4]; 5 ppm of active ingredient) | efficacy (inhibition of bacteria growth; no direct activity) ([4]; 20 ppm of active ingredient)
